Measurements published in the supplement of paper PMC12067093, “Discovery and optimisation of a covalent ligand for TRIM25 and its application to targeted protein ubiquitination” (Chemical Science, 2025).
Some of the results follow.

Compound: Cc1cc(ccc1-c1ccccc1)C(=O)N1CCCN(CC1)C(=O)CCl [compound 10]
Assay: probe-labelled cysteine peptide fold change vs DMSO (competition) (log2 fold change); higher = less target engagement (more negative = stronger competition)
Details: THP-1, incubation time: 4 h
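Note: competitive profiling in live THP-1 cells: cysteine peptides tagged with an iodoacetamide desthiobiotin (IA-DTB) probe, intensity after compound treatment relative to DMSO-treated cells.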

Row | Target | probe-labelled cysteine peptide fold change (10 µM) | probe-labelled cysteine peptide fold change (50 µM)
1 | ERAP1_Q9NZ08_743_SQLLLLACVHNYQPCVQR (UniProt Q9NZ08) | -0.249 | 0.425
2 | EIF3I_Q13347_99_TCGFDFGGNIIMFSTDK (UniProt Q13347) | 0.105 | 0.152
3 | EPRS_P07814_336+337_GSQFGQSCCLR (UniProt P07814) | -0.163 | -0.608
4 | EIF4G3_O43432_913_MLTEAIMHDCVVK (UniProt O43432) | -0.0124 | -0.169
5 | ELP5_Q8TE02_61_SALCGEQVHILGCEVSEEEFR (UniProt Q8TE02) | 0.153 | 0.36
6 | EPRS_P07814_1453_IVQIPFCGEIDCEDWIKK (UniProt P07814) | 0.0129 | -0.913
7 | EPS15_P42566_782_IGTPTRPCPLPPGKR (UniProt P42566) | -0.367 | -1.1
8 | EPN1_Q9Y6I3_205_EEADQPPSCGPEDDAQLQLALSLSR (UniProt Q9Y6I3) | -0.391 | -0.0992
9 | EMG1_Q92979_171_NPVSDHFPVGCMK (UniProt Q92979) | -0.0343 | -0.0523
10 | EIF4G3_O43432_1471_ALMTAVCK (UniProt O43432) | 0.296 | 0.185
11 | ERCC3_P19447_342_SGVIVLPCGAGK (UniProt P19447) | -0.235 | -1.63
12 | ELOB_Q15370_60_TLGECGFTSQTARPQAPATVGLAFR (UniProt Q15370) | -0.1 | -0.0923
13 | EMC8_O43402_153_CRDPHHDYCEDWPEAQR (UniProt O43402) | 0.269 | 0.392
14 | EMC8_O43402_136_FTMDCVAPTIHVYEHHENR (UniProt O43402) | -0.0825 | 0.0294
15 | EIF5_P55010_102_FVLCPECENPETDLHVNPK (UniProt P55010) | 0.0375 | 0.085
16 | ELANE_P08246_198_QAGVCFGDSGSPLVCNGLIHGIASFVR (UniProt P08246) | 0.0325 | -0.102
17 | ERCC3_P19447_284_CIHLEYPLLAEYDFR (UniProt P19447) | 0.0218 | -0.239
18 | ENO1_P06733_337_SCNCLLLK (UniProt P06733) | 0.118 | -0.0633
19 | EMC8_O43402_24_YPHCAVNGLLVAEK (UniProt O43402) | 0.0514 | 0.0611
20 | ENDOV_Q8N8Q3_140_GFGVACHLGVLTDLPCVGVAK (UniProt Q8N8Q3) | 0.0963 | -0.0593
21 | EPHX2_P34913_522_GHIEDCGHWTQMDKPTEVNQILIK (UniProt P34913) | -0.114 | -0.26

Quoted from above, entries 10 to 13
Row | Target | probe-labelled cysteine peptide fold change (10 µM) | probe-labelled cysteine peptide fold change (50 µM)
10 | EIF4G3_O43432_1471_ALMTAVCK (UniProt O43432) | 0.296 | 0.185
11 | ERCC3_P19447_342_SGVIVLPCGAGK (UniProt P19447) | -0.235 | -1.63
12 | ELOB_Q15370_60_TLGECGFTSQTARPQAPATVGLAFR (UniProt Q15370) | -0.1 | -0.0923
13 | EMC8_O43402_153_CRDPHHDYCEDWPEAQR (UniProt O43402) | 0.269 | 0.392

(list continues)

Row | Target | probe-labelled cysteine peptide fold change (10 µM) | probe-labelled cysteine peptide fold change (50 µM)
22 | EML4_Q9HC35_617_QVCLWNSMEHR (UniProt Q9HC35) | 0.0952 | 0.0026
23 | EPRS_P07814_337_KGSQFGQSCCLR (UniProt P07814) | -0.0803 | -0.327
24 | EPRS_P07814_336+337_KGSQFGQSCCLR (UniProt P07814) | -0.117 | -0.698
25 | EIF4G3_O43432_930_NHDEESLECLCR (UniProt O43432) | 0.249 | 0.601
26 | EIF4EBP1_Q13541_62_FLMECR (UniProt Q13541) | 0.0443 | -0.0435
27 | ERCC2_P18074_588_YQEACENGR (UniProt P18074) | -0.0903 | -0.0608
28 | ELAC2_Q9BQ52_51_RGPSGCSGGPNTVYLQVVAAGSR (UniProt Q9BQ52) | -0.177 | -0.351
29 | EIF3K_Q9UBQ5_85_ALTNLPHTDFTLCK (UniProt Q9UBQ5) | 0.249 | -0.0819
30 | EIF4G3_O43432_461_TCLSEDAK (UniProt O43432) | -0.21 | -0.16
31 | EML4_Q9HC35_82_AVIPMSCITNGSGANR (UniProt Q9HC35) | -0.0598 | -0.167
32 | EPB41L2_O43491_424_LGVCANGLLIYK (UniProt O43491) | -0.0328 | 0.0811
33 | ELP4_Q96EB1_361_LNNLICDESDVK (UniProt Q96EB1) | -0.0288 | 0.12
34 | ERCC2_P18074_663_HAAQCVGR (UniProt P18074) | -0.0224 | -0.122
35 | ERAP1_Q9NZ08_193_MAFPCFDEPAFK (UniProt Q9NZ08) | -0.111 | -0.0504
36 | EIF3I_Q13347_57_LGTYMGHTGAVWCVDADWDTK (UniProt Q13347) | 0.129 | 0.104
37 | ELANE_P08246_254_SEDNPCPHPRDPDPASR (UniProt P08246) | -0.427 | -0.892
38 | EIF5B_O60841_1092_HIAVFPCK (UniProt O60841) | 0.115 | -0.0625
39 | EIF3M_Q7L2H7_134_VAASCGAIQYIPTELDQVRK (UniProt Q7L2H7) | -0.0129 | 0.342
40 | EPS15L1_Q9UBC2_82_LVACAQSGHEVTLSNLNLSMPPPK (UniProt Q9UBC2) | 0.33 | 0.38
41 | EPHX2_P34913_232_VTGIQLLNTPAPLPTSCNPSDMSHGYVTVKPR (UniProt P34913) | 0.0137 | -0.154
42 | EIF3E_P60228_250_GRDNIIDLFLYQPQYLNAIQTMCPHILR (UniProt P60228) | 0.0452 | 0.593

Row | Target | probe-labelled cysteine peptide fold change (10 µM) | probe-labelled cysteine peptide fold change (50 µM)
43 | EIF4H_Q15056_85_GFCYVEFDEVDSLK (UniProt Q15056) | 0.155 | -0.0372
44 | EPM2AIP1_Q7L775_465_IFDPDRYQMVICR (UniProt Q7L775) | -0.101 | -0.338
45 | EIF3J_O75822_207_KITNSLTVLCSEK (UniProt O75822) | -0.109 | -0.0404
46 | EPRS_P07814_350_IDMSSNNGCMR (UniProt P07814) | 0.136 | -0.176
47 | ELL_P55199_411_DCEHGEAAAPAPTVR (UniProt P55199) | 0.00359 | 0.847
48 | EIF3I_Q13347_81_LWDCETGK (UniProt Q13347) | -0.136 | -0.042
49 | EPRS_P07814_1448+1453_IVQIPFCGEIDCEDWIK (UniProt P07814) | 0.0328 | -0.199
50 | EIF4A3_P38919_137_GLLALGDYMNVQCHACIGGTNVGEDIR (UniProt P38919) | 0.0268 | -0.154
51 | EML4_Q9HC35_428_TTNEVVLAVEFHPTDANTIITCGK (UniProt Q9HC35) | 0.13 | 0.146
52 | EIF3M_Q7L2H7_175_LLYEALVDCK (UniProt Q7L2H7) | 0.0945 | 0.361
53 | EMILIN2_Q9BXX0_553_VQVVEDICLLNIQGKPHGMEGALPNREDR (UniProt Q9BXX0) | -0.356 | -0.171
54 | ELANE_P08246_208_QAGVCFGDSGSPLVCNGLIHGIASFVR (UniProt P08246) | -0.0984 | -0.486
55 | EPRS_P07814_1309_VACVQVVIIPCGITNALSEEDK (UniProt P07814) | -0.161 | 0.101
56 | ELOVL1_Q9BW60_93_CDPVDYSNSPEALR (UniProt Q9BW60) | -0.0503 | 0.318
57 | EIF5B_O60841_635_APIICVLGHVDTGK (UniProt O60841) | -0.107 | -0.13
58 | EPRS_P07814_92+105_LSSCDSFTSTINELNHCLSLR (UniProt P07814) | 0.0532 | -0.00186
59 | EPM2A_B3EWF7_192_RRASRAFCPR (UniProt B3EWF7) | -0.189 | -0.0883
60 | EPG5_Q9HCE0_318_QLLLAEAELLTLTSDCQNAK (UniProt Q9HCE0) | -0.0281 | 0.284
61 | EPC1_Q9H2F5_135_KMDICPLQFEEMIDRLEK (UniProt Q9H2F5) | 0.203 | -0.458
62 | EIF3I_Q13347_120_QMGYQCFVSFFDLR (UniProt Q13347) | 0.32 | 0.448
63 | ENOSF1_Q7L5Y1_307_ALVPLGIGIATGEQCHNR (UniProt Q7L5Y1) | -0.0519 | -0.286

Row | Target | probe-labelled cysteine peptide fold change (10 µM) | probe-labelled cysteine peptide fold change (50 µM)
64 | EPRS_P07814_92_LSSCDSFTSTINELNHCLSLR (UniProt P07814) | -0.0495 | -0.175
65 | EPDR1_Q9UM22_88_ALIPCK (UniProt Q9UM22) | -0.283 | 0.208
66 | EIPR1_Q53HC9_95_VLTCAAVWR (UniProt Q53HC9) | 0.205 | 0.175
67 | EIF3K_Q9UBQ5_87_CMIDQAHQEERPIR (UniProt Q9UBQ5) | 0.181 | -0.134
68 | EMB_Q6PCB8_180_NKPLISYVGDSTVLTCK (UniProt Q6PCB8) | -0.0607 | 0.0622
69 | EPS15L1_Q9UBC2_470_CQDETQMISSLK (UniProt Q9UBC2) | -0.0116 | -0.0866
70 | EIF3J_O75822_207_ITNSLTVLCSEK (UniProt O75822) | -0.295 | 0.0198
71 | ELMSAN1_Q6PJG2_502_CGVEFSEPSLATK (UniProt Q6PJG2) | -0.195 | -0.222
72 | EIF4G1_Q04637_1516_YLCDEQK (UniProt Q04637) | -0.105 | 0.0982
73 | EIF5_P55010_122_QTIGNSCK (UniProt P55010) | 0.156 | -0.22
74 | EIF4G3_O43432_1534_MFFDCLYDEEVISEDAFYK (UniProt O43432) | 0.149 | 0.165
75 | EOGT_Q5NDL2_61_HIATVCR (UniProt Q5NDL2) | 0.181 | 0.124
76 | EML3_Q32P44_816_VVAVADDFCK (UniProt Q32P44) | -0.0999 | -0.206
77 | ENOSF1_Q7L5Y1_330_ALQFLQIDSCR (UniProt Q7L5Y1) | -0.0317 | -0.0285
78 | EPS15_P42566_269_TGLPSTLLAHIWSLCDTK (UniProt P42566) | 0.224 | -0.137
79 | ELP2_Q6IA86_127_RTSDPALCTLIVSAAADSAVR (UniProt Q6IA86) | -0.0394 | 0.195
80 | EPS15_P42566_82_LVACAQNGLEVSLSSLNLAVPPPR (UniProt P42566) | -0.018 | 0.565
81 | EPS15_P42566_824_EKDPEIFCDPFTSATTTTNK (UniProt P42566) | -0.367 | -0.239
82 | EIF3D_O15371_438_WTCCALLAGSEYLK (UniProt O15371) | 0.074 | 0.0166
